Some entries share one result that the patent states for a list of compounds. Peptide text beside a SMILES is read from it.
These compounds were tested on FTH1 (assay: FTH1 gene expression in human skeletal muscle cells (HSkMC) by qRT-PCR). Details: primary human muscle cells incubated with peptide.
Assay type: cell-based
Method: A cell line derived from human skeletal muscle was selected to assess the effect of SPH and oligopeptides on gene expression. HSkMC (PCS-950-010) obtained from ATCC (Manassas, VA) were propagated in Mesenchymal Stem Cell Basal Medium (ATCC) reduced serum medium supplemented with Primary Skeletal Cell Muscle Growth Kit (ATCC) that contains L-Glutamine (10 mM), Dexamethasone ([…]), rh epidermal growth factor (5 ng/ml), rh FGF-b (5 ng/ml), rh Insulin (25 μg/mL), and fetal bovine serum (4%), on 100 mm cell culture dishes. For this assay, the HSkMC cells were seeded in 24 well plates at a cell density of 1×10^4 cells/cm^2 and maintained at 37° C. in a humidified 5% CO2 atmosphere. […]
Total RNA was extracted using the UPzol reagent for the cell pellets, followed by a DNAse treatment (DNAse TURBO), using the manufacturer's protocols. Complementary DNA (cDNA) was synthesized with the High Capacity cDNA Reverse Transcription Kit (Applied Biosystems) using random hexamers. Gene expression levels were measured by qRT-PCR.
1 μl of cDNA corresponding to 50 ng of reverse transcribed RNA was amplified by Qpcr (QuantStudio™ 6 Flex Real-Time PCR System), using the TaqMan™ Universal PCR Master Mix (Catalog No. 4304437) and a TaqMan™ assay (Roche Molecular Systems, Inc., Pleasanton, CA).
FTH1 gene expression was estimated relative to expression of the housekeeping gene, beta-actin (ACTB), following the standard formula: […]
2-ΔCt. TaqMan™ probe IDs used were: (i) FTH1, Hs01694011_s1; and (ii) ACTB, Hs01060665_g1. All experiments were run in triplicate.
`N=C(N)NCCC[C@H](NC(=O)[C@@H]1CCCN1)C(=O)N[C@@H](CCC(=O)O)C(=O)N[C@@H](CCC(=O)O)C(=O)N[C@@H](CO)C(=O)N[C@@H](CC(=O)O)C(=O)N[C@@H](CCCCN)C(=O)N1CCC[C@H]1C(=O)O` [FT-007, PREESDKP] (H-PREESDKP-OH) was tested, and the “upregulation of FTH1 gene expression” value was over 2 fold. In the case of `CC(C)C[C@H](NC(=O)[C@H](CCC(=O)O)NC(=O)CNC(=O)[C@H](CO)NC(=O)[C@H](CCC(=O)O)NC(=O)[C@H](CCC(=O)O)NC(=O)[C@@H](N)CCCNC(=N)N)C(=O)O` [FT-008, REESGEL] (H-REESGEL-OH), the “upregulation of FTH1 gene expression” value is reported as over 2 fold. With KPREESGE [FT-004] the “upregulation of FTH1 gene expression” value was over 2 fold. For REESGEP [FT-002], the “upregulation of FTH1 gene expression” value was over 2 fold. With `CSCC[C@H](NC(=O)[C@@H]1CCCN1C(=O)[C@H](CCCCN)NC(=O)[C@H](CC(=O)O)NC(=O)[C@H](CO)NC(=O)[C@H](CCC(=O)O)NC(=O)[C@H](CCC(=O)O)NC(=O)[C@@H](N)CCCNC(=N)N)C(=O)N[C@@H](Cc1ccc(O)cc1)C(=O)O` [FT-006, REESDKPMY] (H-REESDKPMY-OH) the “upregulation of FTH1 gene expression” value was over 2 fold.
